Data published in the supplement of paper PMC12823440, “Inhibitors supercharge kinase turnover through native proteolytic circuits” (Nature, 2025).
Where a name gives a salt, the structure may show the parent alone. The list shows a part of the results. Hit calls seldom repeat between salt and free forms of one compound.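 Kinases were expressed as nanoluciferase fusions in K562 cells and luminescence was read every 4 h between 2 and 18 h as percent of control, DMSO set to 100% and a positive control to 0%. A time point counts as decreased when the signal drops significantly (2 sigma). The hit call is the authors' own, does not follow from the count of time points alone, and its rule is not shown.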

By UniProt entry, the sequences of proteins in these tests, tags left out. Where a name states a change or a piece, a line headed by the entry shows the natural chain unless it says otherwise.
UniProt P21802, whole entry, looked up: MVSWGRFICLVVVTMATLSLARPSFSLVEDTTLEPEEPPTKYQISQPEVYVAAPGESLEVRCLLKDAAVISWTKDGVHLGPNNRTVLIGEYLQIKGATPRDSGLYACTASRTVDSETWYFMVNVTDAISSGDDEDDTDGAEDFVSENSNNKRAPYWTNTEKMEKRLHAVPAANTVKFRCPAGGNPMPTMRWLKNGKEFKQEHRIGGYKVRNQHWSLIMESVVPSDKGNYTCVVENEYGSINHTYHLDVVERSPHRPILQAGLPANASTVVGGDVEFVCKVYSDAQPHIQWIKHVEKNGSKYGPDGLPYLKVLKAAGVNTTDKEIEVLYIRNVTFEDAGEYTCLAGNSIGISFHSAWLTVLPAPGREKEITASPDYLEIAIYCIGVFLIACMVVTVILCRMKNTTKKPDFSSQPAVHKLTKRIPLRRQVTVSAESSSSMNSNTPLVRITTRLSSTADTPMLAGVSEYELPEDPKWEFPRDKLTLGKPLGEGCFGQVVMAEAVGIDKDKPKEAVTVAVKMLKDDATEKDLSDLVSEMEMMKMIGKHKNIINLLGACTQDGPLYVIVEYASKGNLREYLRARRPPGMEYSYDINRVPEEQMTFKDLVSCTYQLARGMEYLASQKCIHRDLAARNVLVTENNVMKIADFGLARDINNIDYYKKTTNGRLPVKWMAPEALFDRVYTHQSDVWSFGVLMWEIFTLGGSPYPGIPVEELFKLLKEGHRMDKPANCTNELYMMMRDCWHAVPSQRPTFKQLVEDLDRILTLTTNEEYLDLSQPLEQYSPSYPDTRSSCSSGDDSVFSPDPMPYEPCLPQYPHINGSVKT
UniProt P22607, whole entry, looked up: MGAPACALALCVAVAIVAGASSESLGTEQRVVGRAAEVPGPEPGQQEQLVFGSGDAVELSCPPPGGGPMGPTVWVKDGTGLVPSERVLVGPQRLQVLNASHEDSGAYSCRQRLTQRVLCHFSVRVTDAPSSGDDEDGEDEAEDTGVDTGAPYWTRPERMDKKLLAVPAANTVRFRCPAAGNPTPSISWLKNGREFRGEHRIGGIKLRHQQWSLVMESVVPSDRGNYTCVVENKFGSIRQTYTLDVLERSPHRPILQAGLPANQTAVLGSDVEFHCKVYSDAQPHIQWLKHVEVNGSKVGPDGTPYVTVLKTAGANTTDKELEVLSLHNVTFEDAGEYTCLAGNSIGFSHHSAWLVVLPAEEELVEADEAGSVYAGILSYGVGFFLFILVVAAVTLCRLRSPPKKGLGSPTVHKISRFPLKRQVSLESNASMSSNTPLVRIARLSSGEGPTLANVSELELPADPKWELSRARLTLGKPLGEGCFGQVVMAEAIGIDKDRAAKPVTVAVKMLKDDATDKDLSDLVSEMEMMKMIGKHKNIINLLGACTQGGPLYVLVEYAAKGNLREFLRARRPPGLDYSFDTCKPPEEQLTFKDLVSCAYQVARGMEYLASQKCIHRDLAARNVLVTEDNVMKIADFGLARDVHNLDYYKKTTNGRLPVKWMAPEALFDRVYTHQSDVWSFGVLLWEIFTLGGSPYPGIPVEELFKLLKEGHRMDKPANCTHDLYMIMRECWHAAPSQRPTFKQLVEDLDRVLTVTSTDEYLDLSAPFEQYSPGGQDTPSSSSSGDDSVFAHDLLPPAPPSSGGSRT
UniProt P36888, whole entry: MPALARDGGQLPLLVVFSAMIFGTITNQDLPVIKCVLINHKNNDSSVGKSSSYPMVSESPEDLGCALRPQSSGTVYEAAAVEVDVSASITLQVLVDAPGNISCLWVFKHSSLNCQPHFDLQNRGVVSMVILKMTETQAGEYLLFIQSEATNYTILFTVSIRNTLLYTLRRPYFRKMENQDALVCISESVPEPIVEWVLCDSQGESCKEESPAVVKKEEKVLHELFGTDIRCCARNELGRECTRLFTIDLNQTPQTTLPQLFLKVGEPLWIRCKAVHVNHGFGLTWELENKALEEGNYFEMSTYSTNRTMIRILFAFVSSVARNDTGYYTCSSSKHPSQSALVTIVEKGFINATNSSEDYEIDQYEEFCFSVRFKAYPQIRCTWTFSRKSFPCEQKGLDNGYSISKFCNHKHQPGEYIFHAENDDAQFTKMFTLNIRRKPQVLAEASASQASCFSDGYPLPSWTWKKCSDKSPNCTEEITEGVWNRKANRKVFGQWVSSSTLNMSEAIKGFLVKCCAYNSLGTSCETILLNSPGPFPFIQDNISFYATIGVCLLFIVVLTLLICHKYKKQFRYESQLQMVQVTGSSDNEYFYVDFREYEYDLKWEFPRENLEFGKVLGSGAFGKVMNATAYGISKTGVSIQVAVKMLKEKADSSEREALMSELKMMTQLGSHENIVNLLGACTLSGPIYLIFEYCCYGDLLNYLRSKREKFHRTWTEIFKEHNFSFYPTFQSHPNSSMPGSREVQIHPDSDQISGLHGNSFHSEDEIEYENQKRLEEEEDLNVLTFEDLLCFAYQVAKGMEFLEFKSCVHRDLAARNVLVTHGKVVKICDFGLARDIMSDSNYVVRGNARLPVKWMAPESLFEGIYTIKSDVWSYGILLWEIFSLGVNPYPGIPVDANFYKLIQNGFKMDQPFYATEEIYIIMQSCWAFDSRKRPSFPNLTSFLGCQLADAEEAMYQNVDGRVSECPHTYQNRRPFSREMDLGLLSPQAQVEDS
UniProt P06241, whole entry, looked up: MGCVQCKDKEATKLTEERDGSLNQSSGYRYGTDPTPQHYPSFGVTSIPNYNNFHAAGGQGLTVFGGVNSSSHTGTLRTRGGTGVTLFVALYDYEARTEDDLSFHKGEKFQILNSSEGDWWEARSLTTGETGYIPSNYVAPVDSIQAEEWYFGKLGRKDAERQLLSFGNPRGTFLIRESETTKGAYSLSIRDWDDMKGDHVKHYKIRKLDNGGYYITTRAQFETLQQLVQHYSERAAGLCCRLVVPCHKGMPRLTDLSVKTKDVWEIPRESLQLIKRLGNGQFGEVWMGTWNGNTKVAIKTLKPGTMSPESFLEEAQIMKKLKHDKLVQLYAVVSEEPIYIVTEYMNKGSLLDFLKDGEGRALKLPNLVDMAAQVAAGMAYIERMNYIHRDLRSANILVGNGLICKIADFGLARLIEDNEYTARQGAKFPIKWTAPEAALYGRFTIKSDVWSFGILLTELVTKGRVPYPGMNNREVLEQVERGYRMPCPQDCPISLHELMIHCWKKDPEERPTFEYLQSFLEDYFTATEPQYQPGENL
UniProt Q9Y616: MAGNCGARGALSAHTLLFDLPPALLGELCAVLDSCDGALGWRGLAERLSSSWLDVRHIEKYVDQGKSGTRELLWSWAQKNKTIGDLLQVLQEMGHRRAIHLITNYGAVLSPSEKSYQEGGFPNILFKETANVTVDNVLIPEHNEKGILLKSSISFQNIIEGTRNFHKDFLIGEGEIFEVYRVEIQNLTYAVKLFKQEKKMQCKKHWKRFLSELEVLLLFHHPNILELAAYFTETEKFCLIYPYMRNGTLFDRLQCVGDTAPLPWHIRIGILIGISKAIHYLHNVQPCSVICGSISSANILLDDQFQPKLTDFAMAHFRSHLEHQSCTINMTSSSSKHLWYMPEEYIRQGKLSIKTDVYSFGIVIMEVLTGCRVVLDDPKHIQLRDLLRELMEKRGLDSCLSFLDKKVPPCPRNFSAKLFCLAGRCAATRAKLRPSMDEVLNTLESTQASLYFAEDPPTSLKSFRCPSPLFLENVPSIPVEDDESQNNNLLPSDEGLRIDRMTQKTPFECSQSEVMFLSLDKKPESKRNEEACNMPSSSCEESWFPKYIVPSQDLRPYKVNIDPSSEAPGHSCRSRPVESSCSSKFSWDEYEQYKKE
UniProt P06239: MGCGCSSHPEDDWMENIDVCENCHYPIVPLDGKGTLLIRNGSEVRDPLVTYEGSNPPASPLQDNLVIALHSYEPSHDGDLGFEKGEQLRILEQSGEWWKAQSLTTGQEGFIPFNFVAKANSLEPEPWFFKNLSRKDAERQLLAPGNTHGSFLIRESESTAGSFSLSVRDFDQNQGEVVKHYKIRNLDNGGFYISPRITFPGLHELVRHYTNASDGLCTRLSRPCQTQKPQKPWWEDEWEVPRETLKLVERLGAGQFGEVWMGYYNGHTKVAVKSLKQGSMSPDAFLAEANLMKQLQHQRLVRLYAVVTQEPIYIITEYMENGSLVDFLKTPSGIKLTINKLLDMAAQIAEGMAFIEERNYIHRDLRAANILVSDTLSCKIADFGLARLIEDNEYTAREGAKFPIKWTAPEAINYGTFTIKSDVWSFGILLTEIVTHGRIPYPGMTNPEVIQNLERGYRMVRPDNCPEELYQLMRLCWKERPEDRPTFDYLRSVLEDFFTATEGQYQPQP
UniProt P53667: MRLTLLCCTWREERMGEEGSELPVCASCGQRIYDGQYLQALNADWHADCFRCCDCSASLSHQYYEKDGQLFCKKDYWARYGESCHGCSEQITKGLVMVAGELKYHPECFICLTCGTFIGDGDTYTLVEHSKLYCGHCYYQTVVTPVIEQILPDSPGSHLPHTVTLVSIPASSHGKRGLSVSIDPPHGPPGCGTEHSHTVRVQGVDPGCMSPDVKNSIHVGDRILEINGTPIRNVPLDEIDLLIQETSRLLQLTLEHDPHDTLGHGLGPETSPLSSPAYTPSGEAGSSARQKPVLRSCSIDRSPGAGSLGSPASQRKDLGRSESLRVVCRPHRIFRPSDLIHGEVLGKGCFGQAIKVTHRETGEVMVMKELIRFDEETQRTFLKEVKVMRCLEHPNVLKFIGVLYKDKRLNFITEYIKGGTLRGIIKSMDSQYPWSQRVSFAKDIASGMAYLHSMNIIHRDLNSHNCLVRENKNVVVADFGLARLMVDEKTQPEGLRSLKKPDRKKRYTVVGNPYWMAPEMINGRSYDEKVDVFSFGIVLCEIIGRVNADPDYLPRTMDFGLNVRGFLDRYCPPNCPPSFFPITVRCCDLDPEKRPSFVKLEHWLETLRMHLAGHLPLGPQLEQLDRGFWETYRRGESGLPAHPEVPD
UniProt P53671: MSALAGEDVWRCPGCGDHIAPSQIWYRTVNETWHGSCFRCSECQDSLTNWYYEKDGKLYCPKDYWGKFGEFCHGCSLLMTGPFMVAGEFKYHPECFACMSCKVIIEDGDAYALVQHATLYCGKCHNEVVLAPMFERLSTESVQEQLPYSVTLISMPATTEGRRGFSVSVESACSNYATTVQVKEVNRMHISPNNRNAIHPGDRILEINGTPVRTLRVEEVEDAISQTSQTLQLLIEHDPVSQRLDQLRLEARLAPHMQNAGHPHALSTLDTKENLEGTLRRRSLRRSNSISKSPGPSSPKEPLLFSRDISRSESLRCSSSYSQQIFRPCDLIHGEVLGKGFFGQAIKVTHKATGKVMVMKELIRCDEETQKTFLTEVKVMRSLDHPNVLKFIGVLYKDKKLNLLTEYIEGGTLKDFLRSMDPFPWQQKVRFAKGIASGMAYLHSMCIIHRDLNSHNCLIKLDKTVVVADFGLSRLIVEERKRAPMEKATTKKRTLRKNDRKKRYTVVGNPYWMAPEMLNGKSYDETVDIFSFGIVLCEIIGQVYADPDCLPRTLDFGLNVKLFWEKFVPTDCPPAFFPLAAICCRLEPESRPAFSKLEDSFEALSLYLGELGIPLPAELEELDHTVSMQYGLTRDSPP
UniProt Q12851: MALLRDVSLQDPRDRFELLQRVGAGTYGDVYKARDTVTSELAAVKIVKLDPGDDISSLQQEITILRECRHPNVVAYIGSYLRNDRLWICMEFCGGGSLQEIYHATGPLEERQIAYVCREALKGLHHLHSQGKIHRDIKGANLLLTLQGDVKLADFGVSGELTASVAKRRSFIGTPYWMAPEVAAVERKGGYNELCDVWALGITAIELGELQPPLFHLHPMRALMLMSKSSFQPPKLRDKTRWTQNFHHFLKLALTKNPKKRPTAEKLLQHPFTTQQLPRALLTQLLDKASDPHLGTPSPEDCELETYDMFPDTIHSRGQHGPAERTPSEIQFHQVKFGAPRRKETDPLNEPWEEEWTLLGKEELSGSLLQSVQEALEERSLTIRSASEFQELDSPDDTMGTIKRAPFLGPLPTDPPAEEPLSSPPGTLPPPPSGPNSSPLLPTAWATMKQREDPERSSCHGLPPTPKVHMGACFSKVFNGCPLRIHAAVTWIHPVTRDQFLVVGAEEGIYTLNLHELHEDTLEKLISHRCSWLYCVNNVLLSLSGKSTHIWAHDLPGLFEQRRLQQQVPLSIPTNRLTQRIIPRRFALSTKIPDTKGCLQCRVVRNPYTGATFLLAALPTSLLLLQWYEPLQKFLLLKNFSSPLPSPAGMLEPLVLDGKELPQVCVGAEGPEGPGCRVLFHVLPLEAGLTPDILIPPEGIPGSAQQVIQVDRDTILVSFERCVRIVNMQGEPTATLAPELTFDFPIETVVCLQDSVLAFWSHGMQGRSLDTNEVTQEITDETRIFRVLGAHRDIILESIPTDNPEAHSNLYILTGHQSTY

Tests used:
Test in all cases: kinase-Nluc reporter destabilization hit call (1 = scored as downregulated) (binary); higher = compound decreases kinase abundance
Conditions in all cases: K562, 2-18 h
ERN1 = ERN1 (UniProt O75460)
FGFR1 = FGFR1 (UniProt P11362)
FGFR2 = FGFR2 (UniProt P21802)
FGFR3 = FGFR3 (UniProt P22607)
FGR = FGR (UniProt P09769)
FLT3 = FLT3 (UniProt P36888)
FYN = FYN (UniProt P06241)
GSK3A = GSK3A (UniProt P49840)
HER2 = HER2 (UniProt P04626)
INSRR = INSRR (UniProt P14616)
IRAK3 = IRAK3 (UniProt Q9Y616)
JAK1 = JAK1 (UniProt P23458)
LCK = LCK (UniProt P06239)
LIMK1 = LIMK1 (UniProt P53667)
LIMK2 = LIMK2 (UniProt P53671)
LMTK2 = LMTK2 (UniProt Q8IWU2)
LYN = LYN (UniProt P07948)
MAP2K1 = MAP2K1 (UniProt Q02750)
MAP2K2 = MAP2K2 (UniProt P36507)
MAP4K2 = MAP4K2 (UniProt Q12851)

Measured: kinase-Nluc reporter destabilization hit call

COc1cc2c(cc1OC)-c1c(C)c3ccc(OC)c(OC)c3c[n+]1CC2 [Dehydrocorydaline]
inactive: ERN1; 10 µM 0 | FGFR1; 10 µM 0 | FGFR2; 10 µM 0 | FGFR3; 10 µM 0 | FGR; 10 µM 0 | FLT3; 10 µM 0 | FYN; 10 µM 0 | GSK3A; 10 µM 0 | HER2; 10 µM 0 | INSRR; 10 µM 0 | IRAK3; 10 µM 0 | JAK1; 10 µM 0 | LCK; 10 µM 0 | LIMK1; 10 µM 0 | LIMK2; 10 µM 0 | LMTK2; 10 µM 0 | LYN; 10 µM 0 | MAP2K1; 10 µM 0 | MAP2K2; 10 µM 0 | MAP4K2; 10 µM 0

N#CC[C@H](C1CCCC1)n1cc(-c2ncnc3[nH]ccc23)cn1 [Ruxolitinib (phosphate)]
inactive: ERN1; 10 µM 0 | FGFR1; 10 µM 0 | FGFR2; 10 µM 0 | FGFR3; 10 µM 0 | FGR; 10 µM 0 | FLT3; 10 µM 0 | FYN; 10 µM 0 | GSK3A; 10 µM 0 | HER2; 10 µM 0 | INSRR; 10 µM 0 | IRAK3; 10 µM 0 | JAK1; 10 µM 0 | LCK; 10 µM 0 | LIMK1; 10 µM 0 | LIMK2; 10 µM 0 | LMTK2; 10 µM 0 | LYN; 10 µM 0 | MAP2K1; 10 µM 0 | MAP2K2; 10 µM 0 | MAP4K2; 10 µM 0

C=CC(=O)N1CCN(c2ncnc3c(F)c(-c4c(O)cccc4F)c(Cl)cc23)CC1
inactive: ERN1; 2.5 µM 0 | ERN1; 10 µM 0 | FGFR1; 2.5 µM 0 | FGFR1; 10 µM 0 | FGFR2; 2.5 µM 0 | FGFR2; 10 µM 0 | FGFR3; 2.5 µM 0 | FGFR3; 10 µM 0 | FGR; 2.5 µM 0 | FGR; 10 µM 0 | FLT3; 2.5 µM 0 | FLT3; 10 µM 0 | FYN; 2.5 µM 0 | FYN; 10 µM 0 | GSK3A; 2.5 µM 0 | GSK3A; 10 µM 0 | HER2; 2.5 µM 0 | HER2; 10 µM 0 | INSRR; 2.5 µM 0 | INSRR; 10 µM 0 | IRAK3; 2.5 µM 0 | IRAK3; 10 µM 0 | JAK1; 2.5 µM 0 | JAK1; 10 µM 0 | LCK; 2.5 µM 0 | LCK; 10 µM 0 | LIMK1; 2.5 µM 0 | LIMK1; 10 µM 0 | LIMK2; 2.5 µM 0 | LIMK2; 10 µM 0 | LMTK2; 2.5 µM 0 | LMTK2; 10 µM 0 | LYN; 2.5 µM 0 | LYN; 10 µM 0 | MAP2K1; 2.5 µM 0 | MAP2K1; 10 µM 0 | MAP2K2; 2.5 µM 0 | MAP2K2; 10 µM 0 | MAP4K2; 2.5 µM 0 | MAP4K2; 10 µM 0

CC(C)Oc1ccc(-c2nn([C@@H](C)c3oc4ccc(F)cc4c(=O)c3-c3cccc(F)c3)c3ncnc(N)c23)cc1F [Umbralisib (hydrochloride)]
inactive: ERN1; 2.5 µM 0 | FGFR1; 2.5 µM 0 | FGFR2; 2.5 µM 0 | FGFR3; 2.5 µM 0 | FGR; 2.5 µM 0 | FLT3; 2.5 µM 0 | FYN; 2.5 µM 0 | GSK3A; 2.5 µM 0 | HER2; 2.5 µM 0 | INSRR; 2.5 µM 0 | IRAK3; 2.5 µM 0 | JAK1; 2.5 µM 0 | LCK; 2.5 µM 0 | LIMK1; 2.5 µM 0 | LIMK2; 2.5 µM 0 | LMTK2; 2.5 µM 0 | LYN; 2.5 µM 0 | MAP2K1; 2.5 µM 0 | MAP2K2; 2.5 µM 0 | MAP4K2; 2.5 µM 0
